This is an account of results in patent publication US20250257332A1, “TRUNCATED AND FUSION PROTEINS” (Monash University, priority 2021, published 2025).

Protein sequences, listed by entry. Tags and fused reporters are not part of them. Lines headed by an entry give the natural chain unless they say otherwise; changes in a name come on top.
UniProt P51682: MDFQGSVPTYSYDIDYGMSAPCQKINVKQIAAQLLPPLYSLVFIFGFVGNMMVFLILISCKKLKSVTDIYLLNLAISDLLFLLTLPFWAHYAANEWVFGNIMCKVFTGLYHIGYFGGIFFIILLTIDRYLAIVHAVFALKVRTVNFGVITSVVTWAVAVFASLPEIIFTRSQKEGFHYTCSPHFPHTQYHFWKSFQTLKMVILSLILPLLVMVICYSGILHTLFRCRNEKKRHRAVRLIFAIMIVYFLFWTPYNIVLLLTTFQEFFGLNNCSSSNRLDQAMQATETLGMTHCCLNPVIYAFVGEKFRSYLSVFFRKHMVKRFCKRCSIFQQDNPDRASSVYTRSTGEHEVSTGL
UniProt P43490: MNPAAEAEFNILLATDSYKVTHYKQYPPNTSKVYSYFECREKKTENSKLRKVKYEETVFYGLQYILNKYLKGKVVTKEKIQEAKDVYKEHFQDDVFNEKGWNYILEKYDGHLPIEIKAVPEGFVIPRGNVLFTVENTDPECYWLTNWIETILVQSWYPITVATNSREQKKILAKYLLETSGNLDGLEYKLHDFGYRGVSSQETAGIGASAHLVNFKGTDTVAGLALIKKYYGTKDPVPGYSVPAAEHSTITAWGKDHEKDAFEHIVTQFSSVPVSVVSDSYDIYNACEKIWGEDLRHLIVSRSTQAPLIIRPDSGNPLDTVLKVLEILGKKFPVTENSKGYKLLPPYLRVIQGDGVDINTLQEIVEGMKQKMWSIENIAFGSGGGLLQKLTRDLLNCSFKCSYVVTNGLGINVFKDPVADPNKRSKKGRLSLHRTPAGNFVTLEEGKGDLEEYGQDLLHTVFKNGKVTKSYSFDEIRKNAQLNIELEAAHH

Test [1] has as its target recombinant mouse CCR5 (MyBioSource) (mouse) (UniProt P51682). Put plainly: competition ELISA (FIG. 2C legend).
The target in test [2] is CCR5 receptor on C2C12 mouse myoblasts (mouse) (UniProt P51682). Put plainly: title of FIG. 2; rests on C2C12 proliferation with CCR5 antagonists and on the CCR5 competition ELISA. In general terms: In an ELISA, binding on a coated surface is turned into a signal by an enzyme label.

These are yes or no findings as the source states them, for the method shown. Some entries that bind do so weakly or less than the wild type.

Consider “human NAMPT cytokine finger (hNAMPTcif; NAMPT402-491) (from UniProt P43490 402-491) (ligand)”, for which the binding entry in test [1] is given as “binds”.

Take “human recombinant NAMPT hrNAMPT (1) (Peprotech) (from UniProt P43490 27-491) (ligand)”: the binding result in test [2] is “binds”.
